Data: the supplement of paper PMC12067093, “Discovery and optimisation of a covalent ligand for TRIM25 and its application to targeted protein ubiquitination” (Chemical Science, 2025)
The list shows a part of the results.

Compound: CC1Cc2ccccc2N1C(=O)C1CCCN(C1)C(=O)CCl (mixture of isomers) [TRIM25 ligand 11 (diastereomer mixture)]
Experiment: probe-labelled cysteine peptide fold change vs DMSO (competition) (log2 fold change); higher = less target engagement (more negative = stronger competition)
Conditions: THP-1, incubation time: 4 h
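Further: competitive chemoproteomic profiling in live THP-1 cells with an iodoacetamide desthiobiotin (IA-DTB) probe, comparing probe-labelled peptide intensities in compound-treated cells against DMSO-treated controls.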

Target | probe-labelled cysteine peptide fold change (10 µM) | probe-labelled cysteine peptide fold change (50 µM)
DCLRE1C_Q96SD1_333_DFLSYLCPVNAYPNVIPVGTTMDK (UniProt Q96SD1) | -0.0709 | 0.051
CYTH4_Q9UIA0_329_KPFCLELYNPSCR (UniProt Q9UIA0) | 0.138 | 0.14
CTSB_P07858_319_GQDHCGIESEVVAGIPR (UniProt P07858) | -0.0342 | -0.204
CUL5_Q93034_281_ETILAECQGMIK (UniProt Q93034) | 0.0517 | -0.109
CTSG_P08311_142_AQEGLRPGTLCTVAGWGR (UniProt P08311) | -0.072 | 0.0476
DCLRE1C_Q96SD1_34_AYFLSHCHK (UniProt Q96SD1) | 0.0604 | -0.0702
DCAF12L1_Q5VU92_150_LAQDQQGCGIHAIELNPSK (UniProt Q5VU92) | 0.0184 | -0.0204
CTSS_P25774_180_GCNGGFMTTAFQYIIDNK (UniProt P25774) | -0.0546 | -0.156
DCAF8_Q5TAQ9_195_LQHGLEGHTGCVNTLHFNQR (UniProt Q5TAQ9) | 0.0546 | -0.0457
CUL3_Q13618_636_ALQSLACGKPTQR (UniProt Q13618) | -0.067 | -0.239
CUL4B_Q13620_292+297_CWQNHCR (UniProt Q13620) | -0.0789 | 0.228
CYBB_P04839_369_IVGDWTEGLFNACGCDK (UniProt P04839) | 0.164 | 0.132
CYB5R1_Q9UHQ9_278+288_EHLPAPGDDVLVLLCGPPPMVQLACHPNLDK (UniProt Q9UHQ9) | 0.121 | -0.203
DCTN3_O75935_140_LAQIHIQQQDQCVEITEESK (UniProt O75935) | -0.13 | -0.142
DAPK1_P53355_484_YGHADVAQLLCSFGSNPNIQDKEEETPLHCAAWHGYYSVAK (UniProt P53355) | 0.091 | -0.153
DCTN1_Q14203_742_YYQHLYSIHLAEQPEDCTMQLADHIK (UniProt Q14203) | 0.108 | -0.355
DCAF4_Q8WV16_143_SQLGFLNVTNYCHLAHELR (UniProt Q8WV16) | 0.256 | 0.254
DBT_P11182_99_EGDTVSQFDSICEVQSDK (UniProt P11182) | -0.0268 | 0.129

Quoted at random: two records from the list.
Target | probe-labelled cysteine peptide fold change (10 µM) | probe-labelled cysteine peptide fold change (50 µM)
DCLRE1C_Q96SD1_34_AYFLSHCHK (UniProt Q96SD1) | 0.0604 | -0.0702
CYTH4_Q9UIA0_329_KPFCLELYNPSCR (UniProt Q9UIA0) | 0.138 | 0.14
